Source: patent US20100009956A1, “NOVEL SUBSTITUTED PYRIMIDINES AS CYSTEINE PROTEASE INHIBITORS” (Glaxo Group Limited , a corporation, priority 2006, published 2010)
Counter-ions that a name gives are not always drawn. Some of these results come from one statement about several compounds together.

Amino acid sequences for entries named in this document (tags omitted). Residues count along the entry.
UniProt P25774, 115-331: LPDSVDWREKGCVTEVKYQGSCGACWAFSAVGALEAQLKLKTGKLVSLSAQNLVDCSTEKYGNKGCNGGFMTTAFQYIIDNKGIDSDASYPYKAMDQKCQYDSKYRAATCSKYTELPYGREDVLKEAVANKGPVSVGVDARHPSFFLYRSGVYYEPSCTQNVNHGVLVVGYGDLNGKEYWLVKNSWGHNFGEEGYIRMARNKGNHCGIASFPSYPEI

Molecular target: Cathepsin S (Homo sapiens, UniProt P25774)
Assay: Cathepsin S enzymatic assay (assay 1)
Assay type: biochemical
Conditions: human recombinant enzyme, KQKLR-AMC substrate, pH 6.5
Description: Assay 1) Determination of Falcipain-2, Falcipain-3, Vivapain-2, Cathepsin K Cathepsin S, Cathepsin L, and Cathepsin B Proteolytic Catalytic Activity
Assays for Falcipain-2, Falcipain-3, and Vivapain-2 are carried out with parasitic recombinant enzymes. Cathepsins K, S, L, and B are carried out with human recombinant enzymes. Standard assay conditions for the determination of kinetic constants used a fluorogenic peptide substrate, typically H-D-VLR-AFC (Falcipain-2, Falcipain-3, Vivapain-2), Z-FR-AFC (Cathepsin K, L, B), or KQKLR-AMC (Cathepsin S) and are determined in 100 mM sodium acetate, pH 5.5, containing 10 mM DTT and 0.5 mM CHAPS (Falcipain-2, Falcipain-3, Vivapain-2), and 100 mM sodium acetate, pH 5.5, containing 5 mM L-cysteine, 1 mM CHAPS and 5 mM EDTA (Cathepsin K, L, B), or 50 mM MES, pH 6.5, containing 0.5 mM CHAPS, 10 mM L-CYS, 5 mM EDTA (Cathepsin S). Stock substrate solutions are prepared at 20 mM in DMSO. The activity assays contained 30 uM substrate (Falcipain-2, Falcipain-3, Vivapain-2), 20 uM substrate (Cathepsin K), 25 uM substrate (Cathepsin B), 5 uM substrate (Cathepsin L), and 30 uM substrate (Cathepsin S). All assays contained 1% DMSO. […] All assays are conducted at ambient temperature as end point assays being quenched after 60 minutes with the exception of Cathepsin S at 90 minutes, with 16.6 uM E-64 in 1% DMSO. Product formation (AFC or AMC) is determined from fluorescence (excitation at 405 nm; emission at 530 nm, AFC, or excitation at 360 nm; emission at 460 nm, AMC) monitored with a LJL Aquest (Molecular Devices) fluorescent plate reader. In the case of kinetic reads (used in mechanism of action studies), the reaction is not quenched but is read in the plate reader every 3 minutes for approximately 90 minutes. In addition, the mechanism of action studies for Falcipain-2 utilize Z-LR-AMC as the substrate. Product formation is determined from the fluorescence of AMC, measured with a LJL Acquest (Molecular Devices) fluorescent plate reader (excitation at 360 nm; emission at 460 nm).
Potential inhibitors are evaluated using the quenched read (endpoint) method. Assays are carried out in the presence of variable concentrations of test compound. Reactions are initiated by addition of enzyme and substrate to wells containing inhibitor stamped in 100% DMSO. For endpoint assays, the reaction is quenched with the addition of E64. Dose response data is fit to an IC50 curve with preset fitting tools according to equation 1:
y=a+(b−a)/(1+(10^x/10^c)^d) (1)
where y is the response at a particular inhibitor concentration x, a is the minimum response value, b is the maximum response value, c is the IC50, and d is the slope of the IC50 curve. Assuming the compound is a competitive inhibitor, the apparent KI can be calculated from IC50, as shown in equation 2: […]

SMILES	IC50
CN1CCN(C(=O)C2CCN(Cc3cccc(C(=O)NN(c4nc(C#N)ncc4Br)C4CCCCC4)c3)CC2)CC1 [Example 23, N′-(5-bromo-2-cyano-4-pyrimidinyl)-N′-cyclohexyl-3-({4-[(4-methyl-1-piperazinyl)carbonyl]-1-piperidinyl}methyl)benzohydrazide trifluoroacetate]	< 1000 nM
CCCN(C)Cc1ccc(C(=O)NN(c2nc(C#N)ncc2Cl)C2CCCC2)cc1 [Example 55, N′-(5-chloro-2-cyano-4-pyrimidinyl)-N′-cyclopentyl-4-{[methyl(propyl)amino]methyl}benzohydrazide trifluoroacetate]	< 1000 nM
N#Cc1ncc(Br)c(N(NC(=O)c2cccc(CN3CCC(N4CCOCC4)CC3)c2)C2CCCCC2)n1 [Example 24, N′-(5-bromo-2-cyano-4-pyrimidinyl)-N′-cyclohexyl-3-{[4-(4-morpholinyl)-1-piperidinyl]methyl}benzohydrazide trifluoroacetate]	< 1000 nM
CN(CCC1OCCO1)Cc1ccc(C(=O)NN(c2nc(C#N)ncc2Cl)C2CCCC2)cc1 [Example 61, N′-(5-chloro-2-cyano-4-pyrimidinyl)-N′-cyclopentyl-4-{[[2-(1,3-dioxolan-2-yl)ethyl](methyl)amino]methyl}benzohydrazide trifluoroacetate]	< 1000 nM
CN(Cc1ccc(C(=O)NN(c2nc(C#N)ncc2Cl)C2CCCC2)cc1)C(C)(C)Cc1ccccc1 [Example 71, N′-(5-chloro-2-cyano-4-pyrimidinyl)-N′-cyclopentyl-4-{[(1,1-dimethyl-2-phenylethyl)(methyl)amino]methyl}benzohydrazide trifluoroacetate]	< 1000 nM
CCN(CCCNC(=O)OC(C)(C)C)Cc1ccc(C(=O)NN(c2nc(C#N)ncc2Cl)C2CCCC2)cc1 [Example 81, 1,1-dimethylethyl{3-[[(4-{[2-(5-chloro-2-cyano-4-pyrimidinyl)-2-cyclopentylhydrazino]carbonyl}phenyl)methyl](ethyl)amino]propyl}carbamate]	< 1000 nM
CC(=O)N1CCC(N(NC(=O)c2ccc(CN3CCC(C(=O)N4CCN(C)CC4)CC3)cc2)c2nc(C#N)ncc2Br)CC1 [Example 49, N′-(1-acetyl-4-piperidinyl)-N′-(5-bromo-2-cyano-4-pyrimidinyl)-4-({4-[(4-methyl-1-piperazinyl)carbonyl]-1-piperidinyl}methyl)benzohydrazide trifluoroacetate]	< 1000 nM
